One data set relates to IgG1 (Homo sapiens). As to the kind of experiment: binding assay. Conditions: all dT (printed P) are NapdU; specificity control, group statement, data not shown; purified recombinant protein; label: biotin (cell binding assay); single-stranded DNA.
For data set [1], the target named is TREM2 (triggering receptor expressed on myeloid cells 2), co-expressed with human DAP12 on CHO cells (Homo sapiens) (UniProt Q9NZC2). As to the kind of experiment: flow cytometry. The note with it: all dT (printed P) are NapdU, protein on the cell surface, single-stranded DNA. In general terms: In flow cytometry, cells or beads pass a laser one at a time.
Data set [2] has the same target. As to the kind of experiment: activity in cells. Conditions: all dT (printed P) are NapdU, protein on the cell surface, single-stranded DNA, dose not given here.
For data set [3], the target named is TREM2 on primary M2a macrophages (Homo sapiens) (UniProt Q9NZC2). The data set can be described thus: activity in cells. The note with it: all dT (printed P) are NapdU; stabilized cell surface TREM2 on primary human M2a macrophages, 37 C 3 h; protein on the cell surface; single-stranded DNA; dose not given here.
Where [4] appears, read: CHO-hTREM2/hDAP12 cells, medium with 10% FBS, on ice, label: biotin (cell binding assay).

By UniProt entry, the sequences of proteins in these tests, tags left out. Residues count along the entry.
UniProt Q9NZC2, 19-230: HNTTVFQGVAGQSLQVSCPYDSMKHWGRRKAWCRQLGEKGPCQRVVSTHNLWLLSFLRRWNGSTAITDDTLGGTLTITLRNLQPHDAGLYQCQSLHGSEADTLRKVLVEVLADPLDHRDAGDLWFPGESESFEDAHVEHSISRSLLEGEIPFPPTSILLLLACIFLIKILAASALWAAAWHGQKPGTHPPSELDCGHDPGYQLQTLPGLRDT

For some assays here: Results from cells or extracts need not show a direct contact. For some assays here: A negative result means that nothing was seen under these conditions. For some assays here: The exact form of at least one protein or probe is not confirmed.

As for “CCCTCTGTCAACCTCCACACAGGCCTTTGATGCAAGTATACAGTGGAAGA [KX86-94WC]”, the values for the binding result (in the data set on IgG1 (Homo sapiens); in data set [1] (setting [4])) were “no binding” and “binds”, respectively. The “functional effect of the aptamer” value was “active” in data set [2] (stabilized cell surface TREM2 on CHO-hTREM2, 37 C 3 h) and “active” in data set [3].
Regarding “CCCTCGATCCGGTGGCGGATCCTAAGTATTGGCCCGGTCCGCCAAGAAGA [UX85-90BC (also printed UX95-90BC)]”, the binding result in the data set with IgG1 (Homo sapiens) is “no binding”; in data set [1] (setting [4]) it was “binds”. The “functional effect of the aptamer” value in data set [2] (increased/stabilized cell surface TREM2 on CHO-hTREM2, 37 C 3 h) is “active”.
For the sequence “CCCTCCCTATCGCAATGACACATTGGGGTCTCGAGGTGCGCGATCGAAGA [EX83-95HC (control)]”, the binding result in data set [1] (control SOMAmer did not bind cell surface human TREM2) was “no binding”.

(Values after US20240166742A1, “MOLECULES THAT BIND TO AND STABILIZE TRIGGERING RECEPTOR EXPRESSED ON MYELOID CELLS 2 (TREM2)” (Novartis AG, priority 2015, published 2024).)
